The text below walks through data of publication PMC12179603.

Amino acid sequences for entries named in this document (tags omitted). A change or cut given only in a name is not applied to a line headed by its entry.
UniProt Q965X6: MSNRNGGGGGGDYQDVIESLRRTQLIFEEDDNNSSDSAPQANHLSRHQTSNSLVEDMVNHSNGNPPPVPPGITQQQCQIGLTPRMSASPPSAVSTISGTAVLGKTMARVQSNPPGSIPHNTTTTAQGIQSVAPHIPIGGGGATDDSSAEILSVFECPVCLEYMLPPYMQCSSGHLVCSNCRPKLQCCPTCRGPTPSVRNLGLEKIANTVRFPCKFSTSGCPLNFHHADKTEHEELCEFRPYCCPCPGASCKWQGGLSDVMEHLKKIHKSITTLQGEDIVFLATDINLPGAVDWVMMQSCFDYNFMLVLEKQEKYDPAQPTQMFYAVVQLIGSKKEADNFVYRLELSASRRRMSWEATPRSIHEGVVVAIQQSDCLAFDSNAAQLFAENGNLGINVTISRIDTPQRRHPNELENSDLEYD

Experiment [1] has as its target T1, DVE-1::GFP(KI) (C. elegans (endogenous in worms)) (UniProt Q86MI0).
T1 sequence: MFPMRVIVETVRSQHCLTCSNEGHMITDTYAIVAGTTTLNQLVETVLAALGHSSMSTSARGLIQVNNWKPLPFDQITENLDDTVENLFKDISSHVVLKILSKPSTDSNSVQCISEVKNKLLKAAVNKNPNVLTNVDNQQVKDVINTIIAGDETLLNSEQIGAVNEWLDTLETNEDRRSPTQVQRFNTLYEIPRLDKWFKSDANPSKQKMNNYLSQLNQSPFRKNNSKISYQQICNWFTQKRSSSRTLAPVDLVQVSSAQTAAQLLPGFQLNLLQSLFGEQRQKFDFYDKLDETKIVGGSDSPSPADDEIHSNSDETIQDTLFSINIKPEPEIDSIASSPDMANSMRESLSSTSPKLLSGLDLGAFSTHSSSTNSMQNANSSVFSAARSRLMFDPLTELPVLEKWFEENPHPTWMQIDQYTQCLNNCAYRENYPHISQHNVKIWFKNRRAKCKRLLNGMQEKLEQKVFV
The experiment is described as follows: co-IP; C. elegans worm lysates (with or without 10 μM MG132 before lysis); GFP-Trap Agarose (anti-GFP nanobody) overnight at 4 °C; washes with 50 mM Tris-HCl pH 8.0, 300 mM NaCl; blot with anti-GFP and anti-SIAH-1.

Experiment [2] concerns the target GST-SIAH-1(ΔE3) (C. elegans). As to the kind of experiment: pull-down; 5 μg purified GST fusion on glutathione-Sepharose beads incubated with HEK293T lysates holding Myc-tagged DVE-1 constructs; washes with 50 mM Tris-HCl pH 7.6, 250 mM NaCl, 0.5% NP-40, 1 mM EDTA; blot with anti-Myc; only the target purified.

Results are given in words; binding and its absence hold for the method and conditions named. Binding seen in cells or lysates may run through a third protein. Binding calls can cover weak binding; strength is not graded here. Sequences can lack the tags named with a protein.

Consider “SIAH-1(ΔE3) (endogenous, siah-1(syb4782) mutant) (from UniProt Q965X6) (enzyme)”, for which the binding entry in experiment [1] is recorded as “binds”.

B1: Myc-DVE-1 (protein, UniProt Q86MI0 1-468)
chain: MFPMRVIVETVRSQHCLTCSNEGHMITDTYAIVAGTTTLNQLVETVLAALGHSSMSTSARGLIQVNNWKPLPFDQITENLDDTVENLFKDISSHVVLKILSKPSTDSNSVQCISEVKNKLLKAAVNKNPNVLTNVDNQQVKDVINTIIAGDETLLNSEQIGAVNEWLDTLETNEDRRSPTQVQRFNTLYEIPRLDKWFKSDANPSKQKMNNYLSQLNQSPFRKNNSKISYQQICNWFTQKRSSSRTLAPVDLVQVSSAQTAAQLLPGFQLNLLQSLFGEQRQKFDFYDKLDETKIVGGSDSPSPADDEIHSNSDETIQDTLFSINIKPEPEIDSIASSPDMANSMRESLSSTSPKLLSGLDLGAFSTHSSSTNSMQNANSSVFSAARSRLMFDPLTELPVLEKWFEENPHPTWMQIDQYTQCLNNCAYRENYPHISQHNVKIWFKNRRAKCKRLLNGMQEKLEQKVFV
Regarding B1, in experiment [2], the binding entry is “binds”.
